From patent US6939864B1, “Animal feed compositions and methods of using the same” (Purdue Research Foundation, priority 2001, dated 2005)

Experiment: Calf study: blood measurements (hematocrit, lymphocytes, fibrinogen)
Type: in vivo
Conditions: calves, weekly blood samples
Experimental: Three days after they were born, calves were started on all milk, milk replacer. The calves were assigned randomly to one of four treatment groups control, β-glucan, Vitamin C, and β-glucan and Vitamin C. Each treatment is represented in a block (1 block has 4 calves and each room has 3 blocks). Initial weight and temperature were taken when calves were placed on study, then weekly for six more weeks.
Fecal scores, nasal and ocular discharges were recorded daily along with room temperature and humidity. Blood samples were taken every week for seven weeks; 10 ml heparinized tube for plasma to measure cortisol and ascorbic acid; 5 ml sodium citrate tube for hematocrits, granulocytes, lymphocytes and fibrinogen.
Calves were fed milk replacer equaling 10% of their body weight per day, which was given in two equal rations (morning and afternoon). Dry milk replacer was equal to 12.5% of amount fed. Calves on treatment […] were given β-glucan equaling 0.3125% of total intake. Calves on treatment 3 and 4 received 250 mg of Vitamin C twice a day.

In the case of ascorbyl-2-polyphosphonate [AA], the Lymphocyte percent is reported as 74.35% and the Mean fibrinogen (mean ±SE) is reported as 442.34 ± 12.91 mg/dL.
